The values below come from publication PMC10411901, “FIRRM cooperates with FIGNL1 to promote RAD51 disassembly during DNA repair” (Science Advances, 2023).

For some assays here: No signal at the amounts used counts as a negative. At least one verdict rests on a figure or table, not on a statement of the authors. Tags and fusion partners may be left off the protein sequences shown. For at least one entry, the source does not settle the construct or the ends of the probe. For some assays here: The comparison behind a weaker result is the experiment's own reference, which may not be listed here.

Holding throughout (test): EMSA
Data set [1] addresses T1, FIGNL1 (insect, iFIGNL1) (Homo sapiens) (UniProt Q6PIW4).
T1 sequence (looked up): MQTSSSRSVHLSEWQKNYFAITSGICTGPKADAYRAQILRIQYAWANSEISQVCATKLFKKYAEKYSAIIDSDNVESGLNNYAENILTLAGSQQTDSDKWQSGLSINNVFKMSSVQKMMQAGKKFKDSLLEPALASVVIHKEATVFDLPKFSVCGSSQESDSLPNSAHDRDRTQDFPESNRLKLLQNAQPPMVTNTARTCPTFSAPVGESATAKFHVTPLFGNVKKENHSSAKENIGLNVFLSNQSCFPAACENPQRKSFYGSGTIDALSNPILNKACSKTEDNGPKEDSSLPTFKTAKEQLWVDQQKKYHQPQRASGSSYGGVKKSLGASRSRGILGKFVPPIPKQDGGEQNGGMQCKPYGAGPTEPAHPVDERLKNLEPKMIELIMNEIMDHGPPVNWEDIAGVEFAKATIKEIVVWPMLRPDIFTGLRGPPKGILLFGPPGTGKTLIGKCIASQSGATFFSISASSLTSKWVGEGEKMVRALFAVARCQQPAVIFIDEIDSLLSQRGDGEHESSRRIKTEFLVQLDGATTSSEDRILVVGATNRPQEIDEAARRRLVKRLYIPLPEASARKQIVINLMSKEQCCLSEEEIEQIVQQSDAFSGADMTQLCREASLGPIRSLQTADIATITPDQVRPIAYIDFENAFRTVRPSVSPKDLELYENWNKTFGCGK
To be noted: no fixation; Fixed EMSA: 40 mM tris-acetate pH 7.5, 20 mM NaCl, 2 mM CaCl2, 0.02% Tween, 1 mM DTT, 100 nM DNA, 0-25 nM protein, 37 C 15 min, then 0.2% glutaraldehyde; recombinant protein; residues 1-674; protein details: N-terminal GFP, TEV-removable; label: 5'-FAM; single-stranded DNA.

Data set [2] deals with T2, FIRRM (insect) (Homo sapiens) (UniProt Q9NSG2).
T2 sequence (looked up): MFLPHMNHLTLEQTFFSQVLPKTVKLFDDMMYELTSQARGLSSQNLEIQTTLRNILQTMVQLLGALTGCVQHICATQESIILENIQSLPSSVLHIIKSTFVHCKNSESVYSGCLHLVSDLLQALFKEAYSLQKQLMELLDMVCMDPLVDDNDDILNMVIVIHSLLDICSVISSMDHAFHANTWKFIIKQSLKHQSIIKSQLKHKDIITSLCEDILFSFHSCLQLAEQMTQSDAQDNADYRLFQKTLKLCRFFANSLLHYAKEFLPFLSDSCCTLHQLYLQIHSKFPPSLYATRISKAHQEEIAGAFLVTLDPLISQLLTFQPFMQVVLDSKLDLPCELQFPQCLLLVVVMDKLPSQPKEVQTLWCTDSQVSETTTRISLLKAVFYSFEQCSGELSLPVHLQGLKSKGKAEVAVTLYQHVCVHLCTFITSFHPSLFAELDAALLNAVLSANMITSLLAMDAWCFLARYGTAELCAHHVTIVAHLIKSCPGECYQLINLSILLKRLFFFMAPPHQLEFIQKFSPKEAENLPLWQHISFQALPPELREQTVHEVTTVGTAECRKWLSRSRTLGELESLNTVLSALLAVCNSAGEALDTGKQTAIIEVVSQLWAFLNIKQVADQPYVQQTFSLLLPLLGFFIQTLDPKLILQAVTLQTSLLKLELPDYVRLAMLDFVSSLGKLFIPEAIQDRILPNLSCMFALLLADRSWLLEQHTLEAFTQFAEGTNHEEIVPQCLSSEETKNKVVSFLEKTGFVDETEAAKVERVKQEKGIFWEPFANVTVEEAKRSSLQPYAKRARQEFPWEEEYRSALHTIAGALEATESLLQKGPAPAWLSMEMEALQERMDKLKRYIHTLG
To be noted: no fixation; Fixed EMSA: 40 mM tris-acetate pH 7.5, 20 mM NaCl, 2 mM CaCl2, 0.02% Tween, 1 mM DTT, 100 nM DNA, 0-25 nM protein, 37 C 15 min, then 0.2% glutaraldehyde; recombinant protein; residues 1-853; protein details: N-terminal GFP, TEV-removable; label: 5'-FAM; single-stranded DNA. For orientation: Mobility shift assays separate free from complexed probe on a gel.

The target of data set [3] is T3, FIGNL1 (bacterial) (Homo sapiens) (UniProt Q6PIW4).
T3 sequence (looked up): T1 sequence (looked up)
The conditions noted are these: glutaraldehyde-fixed, 2 mM CaCl2, Fixed EMSA: 40 mM tris-acetate pH 7.5, 20 mM NaCl, 2 mM CaCl2, 0.02% Tween, 1 mM DTT, 100 nM DNA, 0-25 nM protein, 37 C 15 min, then 0.2% glutaraldehyde, recombinant protein, residues 1-674, protein details: C-terminal His, GST removed by PreScission, label: 32P.

The target of data set [4] is T4, FIRRM (bacterial) (Homo sapiens) (UniProt Q9NSG2).
T4 sequence (looked up): T2 sequence (looked up)
The conditions noted are these: glutaraldehyde-fixed, 2 mM CaCl2, Fixed EMSA: 40 mM tris-acetate pH 7.5, 20 mM NaCl, 2 mM CaCl2, 0.02% Tween, 1 mM DTT, 100 nM DNA, 0-25 nM protein, 37 C 15 min, then 0.2% glutaraldehyde, recombinant protein, residues 1-853, protein details: C-terminal His, GST removed by PreScission, label: 32P.

Take “GACGCTGCCGAATTCTACCAGTGCCTTGCTAGGACATCTTTGCCCACCTGCAGGTTCACC [FAM-labeled ssDNA 60-mer]”: the binding result in data set [1] and in data set [2] was “binds” in each case.

Consider “GGGTGAACCTGCAGGTGGGCAAAGATGTCCTGCAATGTAATCGTCAAGCTTTATGCCGT / ACGCTGCCGAATTCTACCAGTGCCAGCGACGGACATCTTTGCCCACCTGCAGGTTCACCC [splayed arms JYM 925 + 926]”, for which the binding result in data set [3] and in data set [4] was “binds more weakly” in each case.

As for “GGGTGAACCTGCAGGTGGGCAAAGATGTCCTGCAATGTAATCGTCAAGCTTTATGCCGT / ACGGCATAAAGCTTGACGATTACATTGCTAGGACATCTTTGCCCACCTGCAGGTTCACCC [dsDNA JYM 925 + 945]”, the binding result in data set [3] and in data set [4] was “no binding” throughout.

On to “GGGTGAACCTGCAGGTGGGCAAAGATGTCCTGCAATGTAATCGTCAAGCTTTATGCCGT [ssDNA JYM 925]”, for which the binding result in data set [3] (single-stranded DNA) and in data set [4] (single-stranded DNA) was “binds” in each case.
